The test concerns the target hERG1b N1–56-Citrine (human) (UniProt Q12809). The experiment in a line: FRET or BRET; FRET two-hybrid in single HEK293 cells cotransfected with an mCFP fusion (donor) and a Citrine fusion (acceptor), 24 to 48 h after transfection; spectral separation, Ratio A − Ratio A0.

Results are given in words; binding and its absence hold for the method and conditions named. In cells and extracts the contact can be indirect. Some results given as binding are weak or reduced against the parent protein; the word gives no strength.

Take “hERG1a N1–354-mCFP (from UniProt Q12809 1-354) (domain or fragment)”: the binding entry was “binds”.
As for “hERG1 C666–1159-mCFP (from UniProt Q12809 666-1159) (domain or fragment)”, the entry is “no binding”.

These data come from paper PMC9428852, “The N-linker region of hERG1a upregulates hERG1b potassium channels” (The Journal of Biological Chemistry, 2022).
